These results are taken from article PMC10442235.

Assay in all cases: affinity purification with mass spectrometry; split-tag tandem affinity purification (ProtA bait on IgG Sepharose, TEV elution, FLAG bait on anti-FLAG gel, FLAG peptide elution) from lysate of S. cerevisiae expressing the factors; NB-HEPES buffer; SDS-PAGE, Coomassie, bands identified by mass spectrometry; the complexes contain yeast 5S rRNA
In assay [1] the target is T1, ProtA-TEV-tagged scSyo1 (S. cerevisiae) (UniProt Q07395).
T1 sequence: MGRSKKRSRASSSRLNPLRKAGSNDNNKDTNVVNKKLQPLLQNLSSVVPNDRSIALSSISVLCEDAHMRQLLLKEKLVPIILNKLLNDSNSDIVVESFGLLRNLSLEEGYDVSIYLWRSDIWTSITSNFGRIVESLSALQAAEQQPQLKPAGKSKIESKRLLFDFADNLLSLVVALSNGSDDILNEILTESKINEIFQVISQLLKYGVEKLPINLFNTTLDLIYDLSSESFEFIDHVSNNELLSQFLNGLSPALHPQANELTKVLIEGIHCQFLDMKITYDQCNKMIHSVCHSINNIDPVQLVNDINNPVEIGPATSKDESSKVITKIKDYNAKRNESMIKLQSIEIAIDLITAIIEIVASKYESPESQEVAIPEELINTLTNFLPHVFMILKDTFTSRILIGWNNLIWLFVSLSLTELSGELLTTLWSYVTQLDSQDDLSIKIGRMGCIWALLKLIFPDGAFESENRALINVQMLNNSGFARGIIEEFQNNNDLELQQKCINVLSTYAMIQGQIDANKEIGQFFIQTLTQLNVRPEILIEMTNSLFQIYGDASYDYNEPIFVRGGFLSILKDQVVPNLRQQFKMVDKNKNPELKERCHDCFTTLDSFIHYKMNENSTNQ

In assay [2] the target is T2, pA-TEV-uL18 (yeast) (S. cerevisiae) (UniProt P26321).
T2 sequence: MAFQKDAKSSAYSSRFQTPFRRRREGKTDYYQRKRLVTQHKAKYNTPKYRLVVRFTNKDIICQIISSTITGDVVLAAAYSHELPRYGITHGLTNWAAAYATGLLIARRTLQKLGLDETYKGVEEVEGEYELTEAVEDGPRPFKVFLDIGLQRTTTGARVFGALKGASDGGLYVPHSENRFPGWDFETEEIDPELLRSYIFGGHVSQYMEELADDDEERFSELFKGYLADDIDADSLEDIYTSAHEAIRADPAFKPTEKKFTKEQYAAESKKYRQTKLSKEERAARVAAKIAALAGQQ

Assay [3] concerns the target T3, hsRpf2 (second bait) (human) (UniProt Q9H7B2).
T3 sequence: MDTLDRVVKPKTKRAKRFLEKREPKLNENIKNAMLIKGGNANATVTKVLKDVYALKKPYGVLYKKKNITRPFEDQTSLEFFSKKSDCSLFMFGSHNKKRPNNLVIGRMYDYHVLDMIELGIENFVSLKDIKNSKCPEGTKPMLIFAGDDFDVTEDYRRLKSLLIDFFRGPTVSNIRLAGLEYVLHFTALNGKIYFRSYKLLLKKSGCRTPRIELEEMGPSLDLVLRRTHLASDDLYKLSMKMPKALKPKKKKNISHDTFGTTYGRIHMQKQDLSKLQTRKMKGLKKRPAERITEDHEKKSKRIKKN

These are yes or no findings as the source states them, for the method shown. In cells and extracts the contact can be indirect. Here binding means that the protein was enriched with, or labelled near, the bait; the list need not be complete. For part of these data: Tags and fused reporters may be left off the sequences shown.

B1: FLAG-scRrs1 (protein, UniProt Q08746 1-203)
chain: MSAEDYKNLPVTVEKPIPVVYDLGNLAAFDSNVLDKNDLDSSNARREEKIKSLTRDNVQLLINQLLSLPMKTTTESVGGTGGQSSVMTLLQLPDPTTDLPREKPLPKAKAMTKWEKFAAKKGIKPKERAGKMIYDEASGEWVPKWGYKGANKKLDDQWLVEVDDKVKGTDNELIDPRTLNRAERKRLVKKNEKQQRRNMKNAL
Take B1: the binding result in assay [1] and in assay [2] was “binds” in each case.

B2: hsSyo1 (HEATR3) (protein, UniProt Q7Z4Q2 1-680)
chain: MGKSRTKRFKRPQFSPTGDCQAEAAAAANGTGGEEDDGPAAELLEKLQHPSAEVRECACAGLARLVQQRPALPGLARRDAVRRLGPLLLDPSLAVRETAAGALRNLSACGGFEVCDDMVTKDIMTPLVALLKECSAGLDSNEMSLQEKKDQNRNSIENIANETVNVLWNICECSSRAVSIFNKEGCLEIVLKYLSRFPTNVDLAISVAYCLQTVTEDNPELLKSFSATALNMLESALLSPVSSMESLLLKTLVAGTIWNLKDIIPCKSQAEIINALLKILSEVLGMDAGEMVIQMKEAETQRLKTAAEAEEILENTNGDDLIEDDEMEGISHKRRVRRKTFVSDLLPPTDKELRETIALLTAQQTALEIIVNMCCNEDPSDDEWEELSSSDESDAFMENSFSECGGQLFSPLCLSHEVHTALTNYLIPKKIFEKTAFPNSIAVDLCSRNPTWKPLIRKMNTIQCRALFCLQSLVSLLDVEHLGGAAALQTLAQHLSQLLFSQPDFAKHVDFLEAISSALRALLQTMASKNISQCMTPDQLMTLCKAGIHSSNVGVRVNVVSILGITGSVLAKEDGTLETLKNIGCFLLEVTTKDPSLVVAGEALDALFDVFADGKEAERASIQIKLLSALKEFQPVFKMKIRKEGRGNYSTDQLCVLDNVKMNLRRFIAYQETVEKRLTS
Take B2: in assay [3], the binding result is reported as “binds”.
